PubChem BioAssay AID1259425, University of Nebraska Medical Center | 2018

Assay: 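Find knockdowns that reproduce the gene expression pattern seen when KSR1 is lost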 (primary screen)
System: HCT116 human colon cancer cells
Reagent: siRNA pool against human genes, 50 nM siRNA
Detection: 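After 50 nM siRNA pool, branched-DNA assay measures six marker transcripts per well, minus blank, normalised to the geometric mean of two housekeeping transcripts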
Reading the numbers: BNIP3L mRNA: higher = more BNIP3L transcript after knockdown
The whole screen tested about 14,000 reagents; shown is an unselected part. Reagents against one gene are numbered here. Not all columns of the deposit are shown. No sequences are given here. The record does not give: the time to read-out.

BNIP3L mRNA, set 1, by gene and reagent
PTPN4 (protein tyrosine phosphatase non-receptor type 4): #1 0.0865
SPATA1 (spermatogenesis associated 1): #1 0.128
SMOX (spermine oxidase): #1 0.141
MS4A3 (membrane spanning 4-domains A3): #1 0.0624
TUBB6 (tubulin beta 6 class V): #1 0.129
ABCB4 (ATP binding cassette subfamily B member 4): #1 0.0429
LMNB1 (lamin B1): #1 0.109
B3GALT4 (beta-1,3-galactosyltransferase 4): #1 0.0942
GNAI3 (G protein subunit alpha i3): #1 0.109
ICA1L (islet cell autoantigen 1 like): #1 0.133; #2 0.188
GIMAP4 (GTPase, IMAP family member 4): #1 0.143
BPGM (bisphosphoglycerate mutase): #1 0.0486
ZFYVE26 (zinc finger FYVE-type containing 26): #1 0.175
HTN1 (histatin 1): #1 0.0568
IPO4 (importin 4): #1 0.0752
PTCD3 (pentatricopeptide repeat domain 3): #1 0.0953
VAT1 (vesicle amine transport 1): #1 0.135
FGF4 (fibroblast growth factor 4): #1 0.109

As entered above:
PTCD3 (pentatricopeptide repeat domain 3), BNIP3L mRNA, set 1 = 0.0953
Under “BNIP3L mRNA, set 1”, MS4A3 (membrane spanning 4-domains A3) shows 0.0624
Under “BNIP3L mRNA, set 1”, ZFYVE26 (zinc finger FYVE-type containing 26) shows 0.175

Continued:
BNIP3L mRNA, set 1, by gene and reagent
PHC2 (polyhomeotic homolog 2): #1 0.408
NEK4 (NIMA related kinase 4): #1 0.135
DNASE1 (deoxyribonuclease 1): #1 0.0921
TRAPPC8 (trafficking protein particle complex subunit 8): #1 0.153
RTTN (rotatin): #1 0.118
ALK (ALK receptor tyrosine kinase): #1 0.0853
TULP3 (TUB like protein 3): #1 0.05
PSTPIP1 (proline-serine-threonine phosphatase interacting protein 1): #1 0.124
HACL1 (2-hydroxyacyl-CoA lyase 1): #1 0.0721
POLR2I (RNA polymerase II subunit I): #1 0.0514
RND1 (Rho family GTPase 1): #1 0.0965
TIMM10 (translocase of inner mitochondrial membrane 10): #1 0.0821
SMN1 (survival of motor neuron 1, telomeric): #1 0.0529
RWDD1 (RWD domain containing 1): #1 0.158
RIMBP2 (RIMS binding protein 2): #1 0.115
